Assay results as given in PubChem BioAssay AID248 (DTP/NCI, 2004).
The list is a part of this screen's results and no random one: it is rich in T/C values a quarter to a half above the control, in often repeated tests (any T/C) and in doses without a T/C. Other doses and runs of a compound stand elsewhere. T/C: endpoint of the treated group in % of that of the vehicle group. Some doses have a count of surviving animals in place of a T/C: the source files T/C as zero there, which appears to mark a toxic dose or a test without result, not a measured value. Some doses without a T/C left all or most animals alive at the check, yet need not have been tolerated: the source hardly ever lists a survival T/C far under the control, and the zero likely stands for such cases as well. Counts of survivors are from the toxicity check (mostly the fifth day) where no day follows; animals may have died later. Schedules are NCI's codes, taken here to give the interval after Q, in days (D) or hours (H), and the number of doses after X. Some entries hold several experiments; the values are given in rising order. Some molecules as drawn cover several salts, stereoisomers or complexes of the source; a dose is that of the sample tested. For survival time, this PubChem deposit counts one and a half times the control or more as active, and values a quarter to a half above the control carry no call in these data; other NCI protocols may use other cut-offs. Some T/C values carry the count of animals alive at the toxicity check (mostly the fifth day); where none is given, no animal had died by that day.

System: L1210 leukemia ip in BDF1 mice, survival T/C
Experiment: NCI In Vivo Anticancer Drug Screen. Data for tumor model L1210 Leukemia (intraperitoneal) in B6D2F1 (BDF1) mice
Conditions: T/C endpoint: mean survival time, higher T/C = longer survival
[1] = dose: 32.0 mg/kg/injection, schedule: Q01DX009 (ip), vehicle: saline
[2] = dose: 75.0 mg/kg/injection, schedule: Q01DX001 (ip), vehicle: saline
[3] = dose: 100.0 mg/kg/injection, schedule: Q04DX003 (ip), vehicle: saline with Tween-80
[4] = dose: 150.0 mg/kg/injection, schedule: Q01DX001 (ip), vehicle: saline
[5] = dose: 200.0 mg/kg/injection, schedule: Q01DX001 (ip), vehicle: saline
[6] = dose: 200.0 mg/kg/injection, schedule: Q04DX003 (ip), vehicle: saline with Tween-80
[7] = dose: 300.0 mg/kg/injection, schedule: Q01DX001 (ip), vehicle: saline
[8] = dose: 400.0 mg/kg/injection, schedule: Q04DX003 (ip), vehicle: saline with Tween-80
[9] = dose: 100.0 mg/kg/injection, schedule: Q01DX009 (ip), vehicle: saline with Tween-80
[10] = dose: 200.0 mg/kg/injection, schedule: Q01DX009 (ip), vehicle: saline with Tween-80

SMILES: CN(C)CCCN1c2ccccc2Sc2ccc(Cl)cc21
- T/C (dose: 6.25 mg/kg/injection, schedule: Q01DX009 (ip), vehicle: saline): 127 % of control [5 of 6 alive]
- survivor count (dose: 6.25 mg/kg/injection, schedule: Q04DX024 (oral), vehicle: saline): 0 of 6
- survivor count (dose: 12.5 mg/kg/injection, schedule: Q04DX024 (oral), vehicle: saline): 0 of 6
- T/C (dose: 16.0 mg/kg/injection, schedule: Q01DX009 (ip), vehicle: saline): 126 % of control
- survivor count (dose: 25.0 mg/kg/injection, schedule: Q01DX009 (ip), vehicle: saline): 6 of 6
- T/C [1]: 134 % of control
- survivor count [1]: 1 of 6
- T/C (dose: 37.5 mg/kg/injection, schedule: Q01DX001 (ip), vehicle: saline): 128 % of control
- survivor count (dose: 40.0 mg/kg/injection, schedule: Q01DX009 (ip), vehicle: saline): 3 of 6
- T/C (dose: 40.0 mg/kg/injection, schedule: Q04DX003 (ip), vehicle: saline): 131 % of control
- survivor count (dose: 50.0 mg/kg/injection, schedule: Q01DX009 (ip), vehicle: saline): 3 of 6
- T/C (dose: 50.0 mg/kg/injection, schedule: Q04DX003 (ip), vehicle: saline): 148 % of control
- survivor count (dose: 60.0 mg/kg/injection, schedule: Q04DX003 (ip), vehicle: saline): 5 of 6
- T/C [2]: 128 % of control
- survivor count [2]: 0 of 6
- survivor count (dose: 75.0 mg/kg/injection, schedule: Q01DX009 (ip), vehicle: saline): 4 of 6
- survivor count (dose: 80.0 mg/kg/injection, schedule: Q01DX009 (ip), vehicle: saline): 0 of 6
- survivor count (dose: 80.0 mg/kg/injection, schedule: Q04DX003 (ip), vehicle: saline): 4 of 6
- survivor count (dose: 100.0 mg/kg/injection, schedule: Q01DX001 (ip), vehicle: saline): 0 of 6
- survivor count (dose: 100.0 mg/kg/injection, schedule: Q01DX009 (ip), vehicle: saline): 0 of 6
- survivor count [3]: 3 of 6
- survivor count (dose: 100.0 mg/kg/injection, schedule: Q04DX003 (ip), vehicle: saline): 2 of 4
- survivor count (dose: 115.0 mg/kg/injection, schedule: Q04DX003 (ip), vehicle: saline): 0 of 6
- survivor count (dose: 120.0 mg/kg/injection, schedule: Q01DX015 (ip), vehicle: saline): 0 of 6
- survivor count (dose: 135.0 mg/kg/injection, schedule: Q01DX015 (ip), vehicle: saline): 2 of 6
- T/C [4]: 131 % of control [5 of 6 alive]
- survivor count [4]: 0 of 6
- survivor count (dose: 160.0 mg/kg/injection, schedule: Q01DX009 (ip), vehicle: saline): 0 of 6
- survivor count (dose: 170.0 mg/kg/injection, schedule: Q04DX003 (ip), vehicle: saline): 0 of 6
- survivor count [5]: 0 of 6
- survivor count (dose: 200.0 mg/kg/injection, schedule: Q01DX009 (ip), vehicle: saline): 0 of 6
- survivor count (dose: 200.0 mg/kg/injection, schedule: Q01DX015 (ip), vehicle: saline): 0 of 6
- survivor count [6]: 1 of 6
- survivor count (dose: 200.0 mg/kg/injection, schedule: Q04DX003 (ip), vehicle: saline): 2 of 6
- survivor count (dose: 240.0 mg/kg/injection, schedule: Q01DX015 (ip), vehicle: saline): 0 of 6
- survivor count [7]: 0 of 6 and 1 of 6
- survivor count (dose: 320.0 mg/kg/injection, schedule: Q01DX009 (ip), vehicle: saline): 0 of 6
- survivor count (dose: 400.0 mg/kg/injection, schedule: Q01DX001 (ip), vehicle: saline): 0 of 6
- survivor count (dose: 400.0 mg/kg/injection, schedule: Q01DX009 (ip), vehicle: saline): 0 of 6
- survivor count [8]: 0 of 6
- survivor count (dose: 480.0 mg/kg/injection, schedule: Q01DX015 (ip), vehicle: saline): 0 of 6

SMILES: CCC1CN2CCc3cc(OC)c(OC)cc3C2CC1CC1c2cc(OC)c(OC)cc2CCN1C(=O)C(Cc1c[nH]c2ccccc12)NC(=O)OC(C)(C)C (configuration not stated)
- T/C (dose: 128.0 mg/kg/injection, schedule: Q01DX009 (oral), vehicle: saline with Tween-80): 126 % of control
- T/C (dose: 133.0 mg/kg/injection, schedule: Q01DX001 (ip), vehicle: saline): 129 % of control
- T/C (dose: 150.0 mg/kg/injection, schedule: Q01DX009 (ip), vehicle: saline): 135 % of control
- T/C [5]: 125 % of control
- survivor count (dose: 256.0 mg/kg/injection, schedule: Q01DX005 (ip), vehicle: saline with Tween-80): 1 of 10
- survivor count (dose: 256.0 mg/kg/injection, schedule: Q01DX009 (ip), vehicle: saline with Tween-80): 2 of 10
- T/C [7]: 125 % of control [5 of 6 alive]

SMILES: O=C(Nc1cccc(C(F)(F)F)c1)Nc1ccc2sc(=S)[nH]c2c1
- survivor count (dose: 25.0 mg/kg/injection, schedule: Q01DX009 (ip), vehicle: saline with Tween-80): 6 of 6
- survivor count [9]: 6 of 6
- survivor count [10]: 6 of 6

SMILES: CC(=O)[O][Sn]([CH2]c1ccccc1)([CH2]c1ccccc1)[CH2]c1ccccc1
- survivor count (dose: 6.0 mg/kg/injection, schedule: Q04DX004 (ip), vehicle: saline with Tween-80): 1 of 6
- survivor count (dose: 12.0 mg/kg/injection, schedule: Q04DX004 (ip), vehicle: saline with Tween-80): 0 of 6
- survivor count (dose: 25.0 mg/kg/injection, schedule: Q04DX003 (ip), vehicle: saline with Tween-80): 5 of 6
- survivor count (dose: 25.0 mg/kg/injection, schedule: Q04DX004 (ip), vehicle: saline with Tween-80): 2 of 6
- survivor count (dose: 50.0 mg/kg/injection, schedule: Q01DX009 (ip), vehicle: saline with Tween-80): 0 of 6 and 1 of 6
- survivor count (dose: 50.0 mg/kg/injection, schedule: Q04DX003 (ip), vehicle: saline with Tween-80): 0 of 6
- survivor count [9]: 0 of 6
- survivor count [3]: 0 of 6 and 4 of 6
- survivor count [10]: 0 of 6
- survivor count [6]: 0 of 6
- survivor count [8]: 0 of 6

SMILES: N#Cc1cn(C2OC(CO)C(O)C2O)c2ncnc(NC(=O)c3ccccc3)c12 (configuration not stated)
- survivor count (dose: 25.0 mg/kg/injection, schedule: Q01DX009 (ip), vehicle: other): 0 of 4
- survivor count (dose: 50.0 mg/kg/injection, schedule: Q01DX009 (ip), vehicle: other): 0 of 4
- survivor count (dose: 100.0 mg/kg/injection, schedule: Q01DX009 (ip), vehicle: other): 0 of 4
- survivor count (dose: 200.0 mg/kg/injection, schedule: Q01DX009 (ip), vehicle: other): 0 of 4
- survivor count (dose: 400.0 mg/kg/injection, schedule: Q01DX009 (ip), vehicle: other): 0 of 4
